## Percent effect of library compounds

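Phenotypic screen: M. tuberculosis growth, cholesterol and DPPC medium, 4 days; the read-out is not stated. Concentration: 500 µM. Direction is inferred from retests: higher values go with more growth inhibition. About 18,000 compounds were tested under these conditions; 5% (about 900) showed 50% or more at least once.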

Values are the deposited “Percent Effect”, in %.
The record does not define 0% and 100%; most values in the screen are far below 50% and negative numbers occur (in some assays of this library far below -100).
The compounds are a random part of those screened.

Compound	effect
CCc1cccc(CN)c1	3.254
CSc1nnc(C)s1	7.934
CCc1cc(C(=O)NCCN2CCCC2)cc(=O)[nH]1	-14.06
CC(CO)CNC(=O)CCNC(=O)NC1CCCCC1 (stereo not shown)	14.8
CC(NS(C)(=O)=O)C(=O)N(C)CCOc1ccccc1 (stereo not shown)	7.55
COc1ccc(Cl)cc1Cn1cnnc1[S+](C)[O-] (stereo not shown)	10.65
CN(CCCNC(=O)c1cccs1)S(C)(=O)=O	-2.862
Cc1noc(C)c1CN(C)C(=O)NCC(C)N(C)C (stereo not shown)	-11.65
COC(=O)Cc1cccc(NC(=O)c2ccoc2C)n1	2.497
NCC(=O)Nc1ccccc1-n1cncn1	7.326
CN(CCc1ccncc1)C(=O)CCNS(C)(=O)=O	-5.974
FC(F)OC1CCNCC1	0.8089
COCC(=O)N1CCCN(Cc2cncn2C)CC1	-17.46
CN1CCN(C(=O)C2CCC2)c2ccccc2C1	-1.51
Cc1ncc(C(=O)NCc2ccnn2C)c(O)c1Br	0.3665
O=C(CN1C(=O)CC2(CCCCC2)C1=O)c1ccc[nH]1	-1.819
CNCCN(C)C1CCN(C)CC1	1.462
CN(CCN1CCOCC1)C1CCNCC1	-2.479
CNCc1c(C)cc(C)nc1OC	-3.729
CC(C)[C@H](N)C(=O)N1CCC(Oc2cccnc2)C1 (stereo partly shown)	3.85
Cc1ccc(NC(=O)C(C)N2CCC(O)CC2)c(C)c1 (stereo not shown)	11.76
CC(C)N1CCN(C2CCNCC2)CC1	-0.2125
O=C(C1CCCN1CC1CCNCC1)N1CCSCC1 (stereo not shown)	-12.89
Cc1nn(CCO)c(C)c1CNC(C)Cn1cccn1 (stereo not shown)	-12.71
O=C(COC(=O)c1ccccn1)Nc1ccccc1	95.64
CCCNc1nc2c(c(=O)n(C)c(=O)n2C)n1CC	4.706
COCCNC1CC1	6.097
CNC(=O)C1CCCN1Cc1ccccc1N(C)C (stereo not shown)	1.505
CC(C)C(NC(=O)c1ccco1)C(=O)Nc1nccs1 (stereo not shown)	22.01
CNS(=O)(=O)c1ccc(C(=O)NCc2ccccc2)o1	46.47
C=C(Br)CNC(=O)c1cccc(CN2CCCC2)c1	-2.247
O=C(Cc1cncs1)N1CCSc2ccncc21	21.29
O=C(CCCc1cn[nH]c1)N1CCS(=O)(=O)CC1	5.351
COc1cc(CN)cc(Cl)c1OC	19.18
COc1cccc(CC(=O)N2CCC(N)CC2)c1	7.846
Cn1nc2c(c1CN)CCCC2	-8.039
CC(C)CC(C)S(N)(=O)=O (stereo not shown)	-1.991
CSCCC(NC(N)=O)C(=O)NCCc1ccccc1 (stereo not shown)	5.019
CCC(N)C(=O)N1CCN(c2ccncc2Cl)CC1 (stereo not shown)	-7.738
COC(=O)CCNC(=O)C1CCCO1 (stereo not shown)	7.578
O=C(NCC1(O)CCNC1)Nc1ccc(F)c(F)c1 (stereo not shown)	16.48
O=C(CCCn1cccn1)NCC1CCCCO1 (stereo not shown)	19.54
Cc1nnc(SCC=Cc2ccccc2)n1CC(N)=O	-6.213
COc1cc(C)c(NC(C)C(=O)NC(N)=O)cc1OC (stereo not shown)	1.364
CCCc1ccc(S(=O)(=O)N2CCNCC2)cc1	49.78
CC(C)CC1C(=O)NCCN1C(=O)C1CCOCC1 (stereo not shown)	-16.34
CC(C)C(=O)NC1(C#N)CCCC1	2.452
Cc1ccc(F)c(NC(=O)CCSCC(N)=O)c1	-9.459
CC(C)COc1cncc(NC(C)CO)n1 (stereo not shown)	14.29
CCS(=O)(=O)CCN1CC(Oc2ccc(C#N)cc2)C1	6.063
Cn1ncc2c(N3CCCCC3CN)ncnc21 (stereo not shown)	2.51
OCCC1COCCN1 (stereo not shown)	1.242
CCCC(=O)NC1CCN(CC)CC1	10.48
CCn1cc(NC(=O)NCCCNC(C)=O)cn1	-9.826
COCc1nn(CCCN2CCCCC2)c(=O)o1	-4.057
OC1(c2ncc[nH]2)CCNCC1	11.08
COCCCN1CCN(CCOC)CC1	2.53
CN1CCN(C(=O)CC(C)(C)C)CC1	-6.205
CCc1ccccc1CN	0.009698
Cc1cccc(CN(CC(N)=O)Cc2ccccn2)c1	31.37
O=C(NCCO)Nc1ccnn1Cc1cccc(Br)c1	3.52
Cc1cc(CO)ccc1N1CCOCC1	9.941
CC(N)C1(N2CCOCC2)CCCC1 (stereo not shown)	-13.08
CCN(CCCN1CCCC1)C(=O)c1cc[nH]n1	2.962
N#Cc1ccc(C(=O)NC2CCC(CO)CC2)nc1 (stereo not shown)	-10.2
Cc1cnc(CN2CC3(CCOC3)CCC2=O)cn1 (stereo not shown)	-11.17
CCS(=O)(=O)c1ccc(CNc2ncccc2Cl)cc1	29.93
CCCC(C#N)NC(=O)c1ccn(-c2ccccc2)n1 (stereo not shown)	89.54
COc1cccn(CC(=O)N2CCN(C)CC2)c1=O	6.444
CCN(CC)C(C)CNc1ccc2nnnn2n1 (stereo not shown)	-24.43
CCC1(C(=O)NCCCNC)CCCC1	2.687
CCCn1nc(C(=O)NCc2csc(Br)c2)ccc1=O	89.53
NC(=O)c1cccc(NC(=O)Cc2ccc(F)cc2)c1	14.49
Cc1csc(CCNC(=O)C(C)n2cccn2)n1 (stereo not shown)	-11.22
CS(=O)(=O)CC(=O)c1ccccc1F	5.138

Some entries from above, unchanged:

CC(C)C(NC(=O)c1ccco1)C(=O)Nc1nccs1 (stereo not shown) gave 22.01%.
CNS(=O)(=O)c1ccc(C(=O)NCc2ccccc2)o1 gave 46.47%.
NCC(=O)Nc1ccccc1-n1cncn1 gave 7.326%.
Cc1cc(CO)ccc1N1CCOCC1 gave 9.941%.
CC(C)COc1cncc(NC(C)CO)n1 (stereo not shown) gave 14.29%.

The values are deposited in ChEMBL (CHEMBL3988442, “University of Dundee, Small-Polar-MMV Screening Library” (2021)).